The data set can be described thus: Nail swelling study (weight increase of nail clippings immersed in penetration enhancer solution). Also noted: species or system human. As to conditions: for weight of the nail clippings after 20 h compared to the control: ANOVA, n=10 (FIG. 1).

Some compounds share one wording; it may come from a single statement.

As for `N.O=C(O)CS` [Ammonium thioglycolate], for the setting “single penetration enhancer”, the “weight of the nail clippings after 20 h compared to the control” value is reported as “significantly increased”. For the same compound, under “single penetration enhancer, compared to controls”, the “physical change in appearance of treated nails” value is “softer than the controls and also lighter in colour”.

For the compound `O=C([O-])CS.O=C([O-])CS.[Ca+2]` [Calcium thioglycolate], the “increase in nail weight, rank among salts of TA” value (salts of TA, all at 5% concentration, 20 h (FIG. 7)) is on record as “largest increase in nail weight”.

Turning to `Cl.N[C@@H](CS)C(=O)O.O` [Cysteine, L-Cysteine hydrochloride hydrate], the “weight of the nail clippings after 20 h compared to the control” value (single penetration enhancer) is listed as “did not significantly increase”.

These data come from patent publication US20080207537A1, “Topical Ungual Formulations” (priority 2005, published 2008).
